According to ChEMBL document CHEMBL4316593 (Eur J Med Chem, 2019):
The source gives many values for each of these; only a part stands here.

Assays:
Format in all cases: cell-based
Settings in all cases: U-87MG ATCC
[1] = Inhibition of RTK/PI3K/AKT/mTOR signaling in human U87 cells assessed as up regulation of SYNE3 gene expression at cytotoxic IC50 measured after 48 hrs relative to control
[2] = Inhibition of RTK/PI3K/AKT/mTOR signaling in human U87 cells assessed as up regulation of FCH domain only 1 gene expression at cytotoxic IC50 measured after 48 hrs relative to control
[3] = Inhibition of RTK/PI3K/AKT/mTOR signaling in human U87 cells assessed as up regulation of regulator of G-protein signaling 10 gene expression at cytotoxic IC50 measured after 48 hrs relative to control
[4] = Inhibition of RTK/PI3K/AKT/mTOR signaling in human U87 cells assessed as up regulation of RPS11 gene expression at cytotoxic IC50 measured after 48 hrs relative to control
[5] = Inhibition of RTK/PI3K/AKT/mTOR signaling in human U87 cells assessed as up regulation of ATP binding cassette subfamily C member 1 gene expression at cytotoxic IC50 measured after 48 hrs relative to control
[6] = Inhibition of RTK/PI3K/AKT/mTOR signaling in human U87 cells assessed as down regulation of TRAPPC9 gene expression at cytotoxic IC50 measured after 48 hrs relative to control
[7] = Inhibition of RTK/PI3K/AKT/mTOR signaling in human U87 cells assessed as up regulation of SSH1 gene expression at cytotoxic IC50 measured after 48 hrs relative to control
[8] = Inhibition of RTK/PI3K/AKT/mTOR signaling in human U87 cells assessed as up regulation of tripartite motif containing 32 gene expression at cytotoxic IC50 measured after 48 hrs relative to control
[9] = Inhibition of RTK/PI3K/AKT/mTOR signaling in human U87 cells assessed as down regulation of CALM1 gene expression at cytotoxic IC50 measured after 48 hrs relative to control
[10] = Inhibition of RTK/PI3K/AKT/mTOR signaling in human U87 cells assessed as down regulation of RANGAP1 gene expression at cytotoxic IC50 measured after 48 hrs relative to control
[11] = Inhibition of RTK/PI3K/AKT/mTOR signaling in human U87 cells assessed as up regulation of ELF3 gene expression at cytotoxic IC50 measured after 48 hrs relative to control
[12] = Inhibition of RTK/PI3K/AKT/mTOR signaling in human U87 cells assessed as down regulation of UBL5 gene expression at cytotoxic IC50 measured after 48 hrs relative to control
[13] = Inhibition of RTK/PI3K/AKT/mTOR signaling in human U87 cells assessed as down regulation of AHRR gene expression at cytotoxic IC50 measured after 48 hrs relative to control
[14] = Inhibition of RTK/PI3K/AKT/mTOR signaling in human U87 cells assessed as down regulation of FSCN1 gene expression at cytotoxic IC50 measured after 48 hrs relative to control
[15] = Inhibition of RTK/PI3K/AKT/mTOR signaling in human U87 cells assessed as up regulation of CAP-Gly domain containing linker protein family member 4 gene expression at cytotoxic IC50 measured after 48 hrs relative to control
[16] = Inhibition of RTK/PI3K/AKT/mTOR signaling in human U87 cells assessed as up regulation of RPS3A gene expression at cytotoxic IC50 measured after 48 hrs relative to control
[17] = Inhibition of RTK/PI3K/AKT/mTOR signaling in human U87 cells assessed as down regulation of MTFR2 gene expression at cytotoxic IC50 measured after 48 hrs relative to control
[18] = Inhibition of RTK/PI3K/AKT/mTOR signaling in human U87 cells assessed as up regulation of UDP-glucose glycoprotein glucosyltransferase 2 gene expression at cytotoxic IC50 measured after 48 hrs relative to control
[19] = Inhibition of RTK/PI3K/AKT/mTOR signaling in human U87 cells assessed as down regulation of FANCI gene expression at cytotoxic IC50 measured after 48 hrs relative to control
[20] = Inhibition of RTK/PI3K/AKT/mTOR signaling in human U87 cells assessed as up regulation of ribosomal modification protein rimK like family member A gene expression at cytotoxic IC50 measured after 48 hrs relative to control
[21] = Inhibition of RTK/PI3K/AKT/mTOR signaling in human U87 cells assessed as down regulation of YRDC gene expression at cytotoxic IC50 measured after 48 hrs relative to control
[22] = Inhibition of RTK/PI3K/AKT/mTOR signaling in human U87 cells assessed as up regulation of protein kinase, X-linked gene expression at cytotoxic IC50 measured after 48 hrs relative to control
[23] = Inhibition of RTK/PI3K/AKT/mTOR signaling in human U87 cells assessed as up regulation of synaptotagmin like 1 gene expression at cytotoxic IC50 measured after 48 hrs relative to control
[24] = Inhibition of RTK/PI3K/AKT/mTOR signaling in human U87 cells assessed as up regulation of NIMA related kinase 6 gene expression at cytotoxic IC50 measured after 48 hrs relative to control
[25] = Inhibition of RTK/PI3K/AKT/mTOR signaling in human U87 cells assessed as down regulation of DYNC1I2 gene expression at cytotoxic IC50 measured after 48 hrs relative to control
[26] = Inhibition of RTK/PI3K/AKT/mTOR signaling in human U87 cells assessed as up regulation of MKX gene expression at cytotoxic IC50 measured after 48 hrs relative to control
[27] = Inhibition of RTK/PI3K/AKT/mTOR signaling in human U87 cells assessed as down regulation of SLBP gene expression at cytotoxic IC50 measured after 48 hrs relative to control
[28] = Inhibition of RTK/PI3K/AKT/mTOR signaling in human U87 cells assessed as up regulation of MYT1 gene expression at cytotoxic IC50 measured after 48 hrs relative to control
[29] = Inhibition of RTK/PI3K/AKT/mTOR signaling in human U87 cells assessed as up regulation of solute carrier family 29 member 2 gene expression at cytotoxic IC50 measured after 48 hrs relative to control
[30] = Inhibition of RTK/PI3K/AKT/mTOR signaling in human U87 cells assessed as up regulation of phosphatidylinositol glycan anchor biosynthesis class V gene expression at cytotoxic IC50 measured after 48 hrs relative to control
[31] = Inhibition of RTK/PI3K/AKT/mTOR signaling in human U87 cells assessed as up regulation of tsukushi, small leucine rich proteoglycan gene expression at cytotoxic IC50 measured after 48 hrs relative to control
[32] = Inhibition of RTK/PI3K/AKT/mTOR signaling in human U87 cells assessed as down regulation of ARFGAP2 gene expression at cytotoxic IC50 measured after 48 hrs relative to control

CC(=O)C(=NNc1ccccc1C#N)C(C)=O
log2FC [1]: 2.31 | log2FC [2]: 1.12 | log2FC [3]: 0.791 | log2FC [4]: 0.46 | log2FC [5]: 0.782 | log2FC [6]: -0.605 | log2FC [7]: 0.624 | log2FC [8]: 0.829 | log2FC [9]: -1.04 | log2FC [10]: -0.954 | log2FC [11]: 3.11 | log2FC [12]: -0.866 | log2FC [13]: -1.16 | log2FC [14]: -0.436 | log2FC [15]: 0.843 | log2FC [16]: 0.368 | log2FC [17]: -1.5 | log2FC [18]: 1.05 | log2FC [19]: -0.72 | log2FC [20]: 0.951 | log2FC [21]: -0.846 | log2FC [22]: 1.04 | log2FC [23]: 0.945 | log2FC [24]: 1.33 | log2FC [25]: -0.781 | log2FC [26]: 1.75 | log2FC [27]: -0.543 | log2FC [28]: 1.96 | log2FC [29]: 1.11 | log2FC [30]: 1.13 | log2FC [31]: 1.38 | log2FC [32]: -0.75
